Results of single-concentration screens

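Phenotypic screen: M. tuberculosis growth, glucose 7H9 medium, 3 days; the read-out is not stated. Concentration: 500 µM. Direction is inferred from retests: higher values go with more growth inhibition. Size under these conditions: about 18,000 compounds, about 1,400 of them at 50% or above in at least one test.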

Each number is a percent effect as filed. The record does not define 0% and 100%; most values in the screen are far below 50% and negative numbers occur (in some assays of this library far below -100). The compounds are a random part of those screened.

SMILES,percent effect
CN1C(=O)C(N)c2cc(Br)ccc21 (stereo not shown),-2.39
Cc1nc(CN2CCn3ccnc3C2)oc1C,-17.21
CCO[C@@H]1COCC[C@H]1NC(=O)c1ncc(F)cc1F,-10.53
CCCNC(=O)C1=NN(C)C(=O)CC1,5.881
CC(C)(C)C(=O)CNC(=O)C1(C#N)CCCCC1,3.347
Cn1cncc1C(N)CO (stereo not shown),3.115
CCOc1ccnc(NCCc2nncn2CC)n1,6.35
CO[C@@H]1CS(=O)(=O)[C@@H]2CNC[C@@H]21,0.8833
COCC[C@]1(O)CCN(Cc2ncccc2C)C[C@H]1C,8.918
CN1CC(=O)Nc2cccnc21,91.84
Cc1nnc(SCC=Cc2ccccc2)n1CC(N)=O,5.925
CC(NC(=O)c1ccncc1F)C(C)(C)CN(C)C (stereo not shown),-10.09
COC(=O)C(Nc1cnn(C)c1)c1ccccc1F (stereo not shown),-6.096
O=C1CCCCNC1,0.4185
Cc1cccc(CNCCS(=O)(=O)N2CCOCC2)c1,25.12
Brc1cccc2c1CNCCO2,51.78
Cc1nnc(SCCO)s1,2.887
CCS(=O)(=O)NC1CCN(c2cc(Br)ccn2)CC1,63.36
CC(c1nc(-c2ccccn2)no1)N1CCSCC1 (stereo not shown),54.63
Cn1cc(C(N)CN)cn1 (stereo not shown),-0.2174
COCC(=O)N1CCCN(Cc2cncn2C)CC1,-3.592
Cc1noc(C)c1CCC(=O)Nc1cccnc1,5.415
Cc1noc(C)c1CN1CCC(C(=O)NC2CC2)CC1,0.09508
CCSC1CCCCN(CCCNC(C)=O)C1 (stereo not shown),12.65
NC(=O)CN1CCN(C/C=C/c2ccccc2)CC1,11.87
CNC(=O)c1sccc1S(=O)(=O)N1CCCC1,6.664
NC(=O)CC1COCCN1 (stereo not shown),-5.035
CN(C)C1CCCN(C(=O)c2ncncc2Br)C1 (stereo not shown),-10.63
CSc1cncc(NCCOc2cccnc2)n1,37.66
CNC1CCCNC1=O (stereo not shown),-0.8677
CNC(=O)c1cnn(-c2ccccc2)c1C1CC1,25.54
CC(C)(C#N)NC(=O)OC(C)(C)C,1.233
Nc1nnc(-c2ccco2)[nH]1,11.36
CNC(=O)CC(C)N(C)Cc1nccn1CCOC (stereo not shown),-7.351
COc1cc(F)c(C(=O)N2CCC(OC)C2)c(F)c1 (stereo not shown),19.11
CCc1ncc(C(=O)NCCNc2ncccn2)s1,20.84
CC(C)CNC(=O)C1CCCO1 (stereo not shown),9.971
NCc1cc(C2CC2)cs1,16.31
CC(C)CC1C(=O)NCCN1C(=O)C1CCOCC1 (stereo not shown),-12.25
Cc1cc(Br)oc1C(=O)N1CCOC(C)C1 (stereo not shown),27.6
Cc1cc(CNc2cc(C(N)=O)ccc2C)no1,31.45
COC(=O)c1ccc(N2CCCC2)nn1,-2.988
O=C1COCC(=O)N1CCc1ccc(Cl)cc1,-5.919
FC(F)OC1CCNCC1,2.167
CS(=O)(=O)c1ccc(NC(=O)CN)cc1,15.33
CN(CCc1ccncc1)C(=O)CCNS(C)(=O)=O,-0.07187
CC(C)CNC(=O)c1cc2ncc(Br)cn2n1,-13.56
Cc1cc(NC(=O)C2CC(=O)Nc3ccccc32)no1 (stereo not shown),0.7387
Cc1ccc(C(C)C(=O)NCCS(N)(=O)=O)s1 (stereo not shown),-5.104
CCCc1nnc(NCc2ccc(C)cn2)o1,66.55
CCN(CCC(=O)OC)Cc1cccc2c1OCO2,21.58
NCc1ccccc1CN1CCCC1=O,-2.262
Cc1c[nH]c(CNC(=O)CSc2ccccn2)n1,14.27
CCOC(=O)c1cncnc1C(=O)OCC,2.324
O=C(Nc1ccccc1N1CCCC1)C1CCOC1 (stereo not shown),39.23
O=C(N1CCNCC1)C1(c2ccc(F)cc2F)CCC1,4.341
COCCC(=O)NCC(C)c1ccc(F)c(F)c1 (stereo not shown),76.31
CCCC(=O)N(C)c1nc2ccccc2n1C,-1.336
CCc1nnc(CNc2cc([C@H]3C[C@@H](N)C3)ncn2)s1,16.37
O=C1CC(c2cccc(Cl)c2)CC(=O)N1,-7.465
Cc1ccc(NC(=O)CN(C)C2CC[S+]([O-])CC2)cc1 (stereo not shown),13.96
CC(C)c1cc(C(=O)NCC2CCC(=O)N2C)n(C)n1 (stereo not shown),2.099
CCCc1ccc(C(=O)N2CCC(N)CC2)cc1,22.14
CCc1nccn1CCNC(=O)[C@H]1CCC[C@@H](O)C1,8.939
CN1C(=O)[C@H]2CN(Cc3cccc(Br)c3)C[C@H]2C1=O,45.6
CCCN1CCC(Cc2noc(C3CCNC3)n2)CC1 (stereo not shown),3.83
COc1ccc(Cl)c(CSCC(O)CO)c1 (stereo not shown),44.37
CCN(Cc1cnc(N)nc1)CC1CCOCC1,-9.449
CNC(=O)CC1(CN)CCCCC1,21.99
c1ccc(CN2CCC(N3CCCC3)CC2)nc1,-0.7893
CC(C)CN(C)CCCN,1.732
O=C(CCc1ccccc1)NC1CCCCNC1=O (stereo not shown),-1.723
CNc1nc(NC2CCS(=O)(=O)C2)ncc1Br (stereo not shown),4.704
CN(C)C(=O)C1CCCN1c1cccc(C(F)(F)F)n1 (stereo not shown),32.66
COc1ncccc1NC(=O)NC1CCCCNC1=O (stereo not shown),5.393
N#Cc1ccc(C(=O)NC2CCC(CO)CC2)nc1 (stereo not shown),-8.772
CN(C1CCCCC1)S(=O)(=O)N1CCCC1C(N)=O (stereo not shown),31.91
CC(C#N)NC(=O)c1sccc1OC(F)F (stereo not shown),3.998
CN(C)S(=O)(=O)CCCN1CCCCC1c1nccs1 (stereo not shown),7.646
O=C(CCCn1cccn1)NCC1CCCCO1 (stereo not shown),27.13
CC(C)(C)OC(=O)N1C[C@@H]2[C@@H](N)[C@@H]2C1,16.19
OCC1CCN(C2CCCNC2)CC1 (stereo not shown),4.602
CNC(=O)CNC(=O)c1cc2cc(C)ccc2nc1C,-24.67
CC1CCCN(CC(=O)Nc2ccccc2C(N)=O)C1 (stereo not shown),70.88
CC1Oc2ccccc2C(=O)N(C)C1=O (stereo not shown),7.201
CC(N)c1cccc(N2CCCS2(=O)=O)c1 (stereo not shown),11.11
CS(=O)(=O)c1ccc(C(=O)NCCn2ccnc2)cc1,9.66
CCN(C(=O)c1cccnc1SC)[C@H]1COC[C@@H]1O,0.7016
CCN(CC)CCNC(=O)Nc1ccc2cn[nH]c2c1,15.01
COc1nc(C)nc(NCC(C)(C)C(N)=O)c1C,19.86
Cc1cccc(NC(=O)c2ccc(=O)n(C)c2)c1C,3.507
CC(C)COc1ccc(NC(=O)C2CCOC2)cn1 (stereo not shown),-83.43
NCC(=O)Nc1ccc(Cl)c(F)c1,73.15
CC(NC(=O)CCNC(=O)c1ccco1)c1cccs1 (stereo not shown),52.24
Cc1cc(C)c(CNC(=O)CCNS(C)(=O)=O)cn1,-13.22

Repeated from the top, 8 entries:

With CN1C(=O)C(N)c2cc(Br)ccc21 (stereo not shown) the screen gave -2.39%.
With Cc1nc(CN2CCn3ccnc3C2)oc1C the screen gave -17.21%.
With CCO[C@@H]1COCC[C@H]1NC(=O)c1ncc(F)cc1F the screen gave -10.53%.
With CCCNC(=O)C1=NN(C)C(=O)CC1 the screen gave 5.881%.
With CC(C)(C)C(=O)CNC(=O)C1(C#N)CCCCC1 the screen gave 3.347%.
With Cn1cncc1C(N)CO (stereo not shown) the screen gave 3.115%.
With CCOc1ccnc(NCCc2nncn2CC)n1 the screen gave 6.35%.
With CO[C@@H]1CS(=O)(=O)[C@@H]2CNC[C@@H]21 the screen gave 0.8833%.

Source: ChEMBL document CHEMBL3988442, “University of Dundee, Small-Polar-MMV Screening Library” (2021).